Values from PubChem BioAssay AID1259327 (Drosophila RNAi Screening Center, 2017)

Assay: 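Knock-downs altering cellular ATP with no metal added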
Cell system: Drosophila S2R+ cells
Reagent: long dsRNA against Drosophila genes
Duration: 5 days (water added on day 4, read one day later)
Treatment: water added as vehicle, no metal, one day before read-out
Read-out: 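Luciferase ATP signal per well, normalised to plate mean, duplicate average converted to z-score across plates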
Direction: ATP z-score: higher = more total ATP than typical wells; ATP luminescence: higher = more total ATP
Call rule: 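Called active when the ATP z-score exceeds 1.5 or falls below -1.5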
Calls: active = hit: ATP up or down; inactive = no clear ATP change
This is one part, drawn at random, of about 3,100 reagents tested. In the full data, 378 (12%) are marked active. 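Hits include both directions; z-score sign shows ATP rise or fall; raw luminescence values are not plate-normalised.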 Unmarked entries are inactive. Names joined by + are all predicted targets of the reagent. The record does not give: the amount of reagent.

gene knocked down	DRSC id	ATP z-score, duplicate mean	ATP luminescence, replicate 1 (RLU)	ATP luminescence, replicate 2 (RLU)
CG44153	DRSC02228	0.701	5.03e5	5.55e5
CG44153	DRSC02902	-0.924	6.44e5	6.13e5
CG44153	DRSC02903	-0.139	9.00e5	8.56e5
Gr59d (Gustatory receptor 59d)	DRSC22553	0.858	6.64e5	6.41e5
Gr59d (Gustatory receptor 59d)	DRSC39897	-0.652	4.98e5	5.62e5
CG34234 + Dh44-R2	DRSC07278	0.897	8.65e5	7.87e5
S2P (site-2 protease)	DRSC07311	-0.674	5.89e5	5.28e5
S2P (site-2 protease)	DRSC27864	-0.626	1.07e6	8.89e5
Sys1 (Sys1 golgi trafficking protein)	DRSC14372	0.109	3.21e5	7.31e5
ppk10 (pickpocket 10)	DRSC01123	-0.267	6.79e5	7.50e5
Or65a (Odorant receptor 65a)	DRSC08808	1	7.63e5	9.45e5
Or65a (Odorant receptor 65a)	DRSC39609	-1.95 (active)	3.42e5	3.23e5
S (Star)	DRSC24973	-1.58 (active)	6.65e5	6.43e5
S (Star)	DRSC39484	2.02 (active)	6.79e5	5.00e5
CG4025	DRSC18523	1.31	7.40e5	8.69e5
Sys1 + Dhod	DRSC39530	-1.82 (active)	3.27e5	3.37e5
ATPsynbeta (ATP synthase, beta subunit)	DRSC17194	-0.233	6.54e5	5.55e5
LRP1 (LDL receptor protein 1)	DRSC07238	-0.709	5.69e5	5.41e5
CG31141	DRSC13646	-0.542	8.47e5	8.04e5
CG31141	DRSC29508	0.0987	8.69e5	8.03e5
Grik	DRSC15846	0.168	7.10e5	7.36e5
Grik	DRSC15847	-0.133	2.60e5	8.33e5
Grik	DRSC26067	-0.612	7.64e5	7.85e5
CG31717	DRSC01121	-0.463	6.87e5	6.98e5
Mgtor (Megator)	DRSC05958	0.339	7.91e5	7.43e5
Mgtor (Megator)	DRSC39824	-1.74 (active)	3.66e5	3.47e5
amx (almondex)	DRSC23466	-0.476	7.88e5	7.95e5
amx (almondex)	DRSC39794	0.843	5.29e5	5.47e5
Abca3 (ATP binding cassette subfamily A member 3)	DRSC20546	0.546	7.76e5	8.29e5
CG44098	DRSC12327	-0.334	8.87e5	8.18e5
CG44098	DRSC23643	1.95 (active)	1.05e6	1.06e6
CG44098	DRSC24166	1.58 (active)	1.02e6	1.01e6
Or82a (Odorant receptor 82a)	DRSC11996	-0.656	4.82e5	7.54e5
Or82a (Odorant receptor 82a)	DRSC39482	1.02	5.03e5	5.37e5
Stt3A	DRSC20514	-0.291	6.94e5	6.58e5
Stt3A	DRSC24884	0.242	9.20e5	7.90e5

The list goes on (8 carried over from the part before).
gene knocked down	DRSC id	ATP z-score, duplicate mean	ATP luminescence, replicate 1 (RLU)	ATP luminescence, replicate 2 (RLU)
Abca3 (ATP binding cassette subfamily A member 3)	DRSC20546	0.546	7.76e5	8.29e5
CG44098	DRSC12327	-0.334	8.87e5	8.18e5
CG44098	DRSC23643	1.95 (active)	1.05e6	1.06e6
CG44098	DRSC24166	1.58 (active)	1.02e6	1.01e6
Or82a (Odorant receptor 82a)	DRSC11996	-0.656	4.82e5	7.54e5
Or82a (Odorant receptor 82a)	DRSC39482	1.02	5.03e5	5.37e5
Stt3A	DRSC20514	-0.291	6.94e5	6.58e5
Stt3A	DRSC24884	0.242	9.20e5	7.90e5
Ant2 (Adenine nucleotide translocase 2)	DRSC26446	-1.31	6.48e5	7.25e5
Nhe1 (Na[+]/H[+] hydrogen exchanger 1)	DRSC00762	-0.707	4.33e5	4.26e5
Nhe1 (Na[+]/H[+] hydrogen exchanger 1)	DRSC39761	0.34	4.85e5	5.21e5
CG9825	DRSC04569	0.182	7.43e5	7.47e5
CG9825	DRSC25634	-0.71	7.68e5	7.56e5
bon + CG15923	DRSC39557	0.551	4.67e5	5.40e5
GC1	DRSC15322	-0.308	2.55e5	8.05e5
GC1	DRSC25627	-1.16	6.86e5	6.82e5
Or2a (Odorant receptor 2a)	DRSC18690	0.395	7.78e5	7.49e5
Or2a (Odorant receptor 2a)	DRSC39832	-1.5	3.66e5	3.83e5
PGAP2 (Post-GPI attachment to proteins 2)	DRSC00632	0.599	5.26e5	5.15e5
PGAP2 (Post-GPI attachment to proteins 2)	DRSC28496	-0.0225	8.67e5	7.77e5
Cngl (Cyclic nucleotide-gated ion channel-like)	DRSC20318	1.16	5.06e5	7.73e5
Cngl (Cyclic nucleotide-gated ion channel-like)	DRSC23577	-0.0575	8.21e5	8.66e5
CG11069	DRSC14289	0.413	7.56e5	7.41e5
ATPsynC (ATP synthase, subunit C)	DRSC15236	-2.48 (active)	4.08e5	4.89e5
ATPsynC (ATP synthase, subunit C)	DRSC39449	-1.85 (active)	3.48e5	3.13e5
stet (stem cell tumor)	DRSC08246	-0.659	5.28e5	5.92e5
stet (stem cell tumor)	DRSC08283	-0.895	6.14e5	6.78e5
PGRP-SC2 (Peptidoglycan recognition protein SC2)	DRSC06481	-0.184	6.96e5	7.50e5
PGRP-SC2 (Peptidoglycan recognition protein SC2)	DRSC25449	-1.06	6.95e5	7.43e5
sut2 (sugar transporter 2)	DRSC07701	0.389	7.43e5	8.03e5
sut2 (sugar transporter 2)	DRSC39500	-1.31	3.63e5	3.69e5
CG5281	DRSC15761	-0.356	3.01e5	6.79e5
CG5281	DRSC39880	-2.01 (active)	3.73e5	4.56e5
AstA-R2 (Allatostatin A receptor 2)	DRSC24820	0.329	9.37e5	8.45e5
CG7840	DRSC03075	-2.12 (active)	3.35e5	3.25e5
CG7840	DRSC39867	-0.413	4.74e5	6.32e5
CG8051	DRSC20077	0.348	7.22e5	8.42e5
CG8051	DRSC26855	0.0509	9.33e5	1.00e6
Gr94a (Gustatory receptor 94a)	DRSC13597	-0.823	2.53e5	6.96e5
Gr94a (Gustatory receptor 94a)	DRSC39563	-1.1	3.75e5	4.06e5
